Source: PubChem BioAssay AID624297 (National Center for Advancing Translational Sciences (NCATS), 2012)
Hit rate of the full screen: of about 340,000 compounds, about 6,200 (1.8%) were called active. The inconclusive results got no clear call from the source; some entries with a clear call stand among them for comparison. Calls come from the whole dose curve; as a rule, active = well fitted activation curve with a large enough effect; inconclusive = small, poorly fitted or top-dose-only effect; inactive = no such curve, though single readings can be large or run the other way. A potency beside an inconclusive call is a rough fit, not a confirmed value.
Potency is the fitted concentration of half-maximal effect.

Assay: A quantitative high throughput screen for small molecules that induce DNA re-replication in SW480 colon adenocarcinoma cells. For re-replication activation: % of control where 0% means no effect. Note: nearly all actives have a fitted effect of over 55% in size.
Conditions: Hoechst DNA content imaging, 48 h; re-replication activation: at 46.1 µM (top of the series)
Procedure, shortened: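 Treated cells incubate 48 hr (37 C, 5% CO2), are stained 40 min with Hoechst, and nuclear fluorescence is enumerated; a rise in nuclei with high DNA signal marks re-replication.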
For O=C(NCc1ccco1)c1cc2ccc(O)cc2oc1=O, the Potency was inconclusive: 16.4 µM [activator, partial curve, poor fit].
For CC(C)(C)[C@@H]1CCC(=O)N(CC[C@H](Sc2ccc(Br)cc2)c2ccccc2)CC1, the Potency was inconclusive: 0.58 µM [activator, full curve].
With COc1cccc(NC(=O)CN(C)C(=O)c2cn(-c3ccccc3)nc2-c2cccnc2)c1 the “re-replication activation” value was inactive: 6.79%.
In the case of COc1ccc(C)cc1N=Nc1ccc(O)c2ncccc12, the Potency is reported as inconclusive: 3.66 µM [activator, single point].
With Cc1cccc(OCc2nnc(SCC(=O)Nc3ccc(N4CCOCC4)cc3)o2)c1 the “re-replication activation” value was inactive: -1.68%.
In the case of Cc1[nH]n(-c2cccc(Cl)c2)c(=O)c1/C=N/n1c(C)nc2ccccc2c1=O, the Potency is reported as inconclusive: 23.1 µM [activator, single point].
In the case of O=C(NCCCN1CCOCC1)c1ccc(Sc2ccccc2Cl)c([N+](=O)[O-])c1, the Potency is reported as inconclusive: 6.51 µM [activator, full curve, poor fit].
With COc1ccc(C(O)P(=O)(OCCC(C)C)c2ccc(N(C)C)cc2)cc1 (centres undefined) the “re-replication activation” value was inactive: -12.5%.
For Cc1ccc2c(O)c(C)c(=O)[nH]c2n1, the Potency was inconclusive: 18.4 µM [activator, single point].
For CCCCc1ccc(NC(=O)CSc2nc(=O)n(CCN(CC)CC)c3c2CCC3)cc1, the Potency was inconclusive: 29.1 µM [activator, single point].
In the case of CC(C)(C)c1ccc(-n2ncc3c2CCCC3NC(=O)CCN2CCCO2)cc1 (centres undefined), the Potency is reported as inconclusive: 9.2 µM [activator, partial curve, poor fit].
With CCOC(=O)Cn1c(=O)c(C#N)cn(C(C)C)c1=O the Potency was inconclusive: 29.1 µM [activator, single point].
In the case of CNCCCC1Sc2ccccc2Oc2ccccc21 (centres undefined), the Potency is reported as inconclusive: 18.4 µM [activator, single point].
For COc1ccc(CC(=O)NCc2ccccc2)cc1, the Potency was inconclusive: 2.91 µM [activator, full curve, poor fit].
With CCc1noc(C)c1C(=O)NNC(=O)c1ccccc1 the Potency was inconclusive: 1.16 µM [activator, partial curve, poor fit].
With COc1ccc(OCCNC2CCCC2)cc1 the “re-replication activation” value was inactive: -1.6%.
In the case of CCOC(=O)C1(Cc2ccc(Cl)cc2)CCN(C(=O)CCc2ccncc2)CC1, the Potency is reported as inconclusive: 8.2 µM [activator, partial curve, poor fit].
For N#C/C(=C\c1ccccc1)C(=O)N(c1ccccn1)C1CCCCC1, the “re-replication activation” value was inactive: -6.7%.
In the case of O=Nc1ccc(O)c2ncccc12, the Potency is reported as inconclusive: 1.16 µM [activator, full curve, poor fit].
